Some of the results follow. The data scatter; read single values as rough.
Experiments:
[1] = compound: ClCC(=O)N[C@@H]1CCCc2ccccc12; assay: log2 mean competition ratio of IA-DTB cysteine labelling (DMSO/compound) (log2 ratio); higher = stronger cysteine engagement by compound; settings: treatment time: 4 h, cell line lysate: HEK293T
Procedure: (§1)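 IA-DTB competitive cysteine chemoproteomics in HEK293T RIPA lysate. Lysates were treated with compound 29 or 30 at 50 or 200 µM for 4 h, then IA-DTB (500 µM, 1 h), trypsin-digested, NeutrAvidin-enriched and analysed by diaPASEF. Competition ratio = intensity DMSO / intensity compound (n=4 treated, n=64 DMSO); binding: mean log2 CR ≥ 1 and p ≤ 0.05 plus QC filters. Target is the cysteine site.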

Amino acid sequences for entries named in this document (tags omitted). A change or cut given only in a name is not applied to a line headed by its entry. Residues count along the entry.
UniProt Q9GZR1, 349-369: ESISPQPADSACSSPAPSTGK
UniProt O43166: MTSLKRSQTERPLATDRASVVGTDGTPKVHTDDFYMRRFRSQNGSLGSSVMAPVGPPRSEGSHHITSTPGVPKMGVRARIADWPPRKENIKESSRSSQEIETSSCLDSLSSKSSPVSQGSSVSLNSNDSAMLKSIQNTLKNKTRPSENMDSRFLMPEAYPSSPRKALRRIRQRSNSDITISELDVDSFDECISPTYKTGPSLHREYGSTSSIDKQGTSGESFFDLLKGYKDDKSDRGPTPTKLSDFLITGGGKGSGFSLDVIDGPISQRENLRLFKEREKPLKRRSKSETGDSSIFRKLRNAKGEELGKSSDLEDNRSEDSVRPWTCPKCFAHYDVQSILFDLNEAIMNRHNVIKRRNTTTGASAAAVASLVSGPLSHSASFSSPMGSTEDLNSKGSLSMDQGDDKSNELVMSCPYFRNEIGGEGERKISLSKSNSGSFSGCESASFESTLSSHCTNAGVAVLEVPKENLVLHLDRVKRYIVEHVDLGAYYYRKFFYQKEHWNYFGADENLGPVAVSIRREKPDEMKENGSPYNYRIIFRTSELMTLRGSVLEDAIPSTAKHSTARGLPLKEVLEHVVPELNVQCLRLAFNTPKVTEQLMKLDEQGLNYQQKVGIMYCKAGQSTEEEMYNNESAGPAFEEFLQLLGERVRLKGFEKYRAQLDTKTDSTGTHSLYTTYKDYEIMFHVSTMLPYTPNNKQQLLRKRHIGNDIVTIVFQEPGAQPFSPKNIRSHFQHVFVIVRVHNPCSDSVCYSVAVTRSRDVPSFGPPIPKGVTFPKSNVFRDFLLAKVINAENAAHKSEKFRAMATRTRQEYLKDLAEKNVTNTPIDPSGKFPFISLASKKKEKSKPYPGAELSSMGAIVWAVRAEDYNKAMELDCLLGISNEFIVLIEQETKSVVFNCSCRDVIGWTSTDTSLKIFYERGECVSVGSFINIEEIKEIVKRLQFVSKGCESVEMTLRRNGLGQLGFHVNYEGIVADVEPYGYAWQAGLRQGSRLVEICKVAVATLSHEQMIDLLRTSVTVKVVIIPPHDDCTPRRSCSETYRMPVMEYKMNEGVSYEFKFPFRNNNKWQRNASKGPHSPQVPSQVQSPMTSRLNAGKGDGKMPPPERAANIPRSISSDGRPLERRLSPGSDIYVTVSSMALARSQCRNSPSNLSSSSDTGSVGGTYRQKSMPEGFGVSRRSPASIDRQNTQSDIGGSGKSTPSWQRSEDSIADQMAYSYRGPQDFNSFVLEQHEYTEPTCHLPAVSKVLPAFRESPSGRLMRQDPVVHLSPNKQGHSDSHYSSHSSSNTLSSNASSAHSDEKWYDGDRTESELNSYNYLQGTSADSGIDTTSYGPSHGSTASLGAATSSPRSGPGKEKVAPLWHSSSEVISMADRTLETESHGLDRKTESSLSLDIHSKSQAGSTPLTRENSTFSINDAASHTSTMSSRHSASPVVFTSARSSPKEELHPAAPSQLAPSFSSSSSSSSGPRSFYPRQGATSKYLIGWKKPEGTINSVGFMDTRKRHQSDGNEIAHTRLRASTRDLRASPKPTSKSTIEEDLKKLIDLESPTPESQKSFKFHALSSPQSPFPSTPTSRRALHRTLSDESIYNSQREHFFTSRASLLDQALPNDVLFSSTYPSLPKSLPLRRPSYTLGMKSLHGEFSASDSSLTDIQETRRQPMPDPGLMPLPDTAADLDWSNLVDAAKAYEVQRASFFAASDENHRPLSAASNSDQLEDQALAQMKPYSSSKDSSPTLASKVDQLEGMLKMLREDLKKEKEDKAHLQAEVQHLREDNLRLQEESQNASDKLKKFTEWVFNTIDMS
UniProt Q562F6: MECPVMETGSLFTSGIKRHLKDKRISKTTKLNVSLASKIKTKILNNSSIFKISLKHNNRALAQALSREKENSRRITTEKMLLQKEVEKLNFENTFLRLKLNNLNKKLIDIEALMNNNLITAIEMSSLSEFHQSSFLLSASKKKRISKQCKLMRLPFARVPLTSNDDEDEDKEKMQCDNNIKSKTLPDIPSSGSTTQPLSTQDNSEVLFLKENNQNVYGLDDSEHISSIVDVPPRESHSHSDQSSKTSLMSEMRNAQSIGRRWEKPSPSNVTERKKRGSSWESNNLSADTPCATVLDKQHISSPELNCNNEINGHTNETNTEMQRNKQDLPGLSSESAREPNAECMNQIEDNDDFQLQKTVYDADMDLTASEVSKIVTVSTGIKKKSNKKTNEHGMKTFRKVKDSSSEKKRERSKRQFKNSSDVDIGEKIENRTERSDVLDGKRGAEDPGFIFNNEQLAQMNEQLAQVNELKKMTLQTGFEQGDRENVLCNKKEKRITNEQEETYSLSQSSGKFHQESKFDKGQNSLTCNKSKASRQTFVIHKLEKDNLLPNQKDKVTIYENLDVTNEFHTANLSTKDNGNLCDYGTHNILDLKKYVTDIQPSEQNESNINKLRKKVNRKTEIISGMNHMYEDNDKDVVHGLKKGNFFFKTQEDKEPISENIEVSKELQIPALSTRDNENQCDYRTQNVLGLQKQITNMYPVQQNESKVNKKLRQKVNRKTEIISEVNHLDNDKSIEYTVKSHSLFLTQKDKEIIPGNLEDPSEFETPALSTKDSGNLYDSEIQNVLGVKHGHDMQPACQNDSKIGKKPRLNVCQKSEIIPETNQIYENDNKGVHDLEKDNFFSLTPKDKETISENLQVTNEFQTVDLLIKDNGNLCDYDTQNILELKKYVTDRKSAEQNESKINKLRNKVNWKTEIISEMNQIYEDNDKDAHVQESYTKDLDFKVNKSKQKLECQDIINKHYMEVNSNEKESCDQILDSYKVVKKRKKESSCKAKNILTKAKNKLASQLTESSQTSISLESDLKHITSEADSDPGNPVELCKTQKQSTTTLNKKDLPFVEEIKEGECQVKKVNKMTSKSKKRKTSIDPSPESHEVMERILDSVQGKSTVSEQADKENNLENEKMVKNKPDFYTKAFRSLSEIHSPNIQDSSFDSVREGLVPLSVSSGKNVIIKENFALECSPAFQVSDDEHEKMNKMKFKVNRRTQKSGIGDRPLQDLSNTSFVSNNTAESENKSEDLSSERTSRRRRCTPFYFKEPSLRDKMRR
UniProt Q9UPW6: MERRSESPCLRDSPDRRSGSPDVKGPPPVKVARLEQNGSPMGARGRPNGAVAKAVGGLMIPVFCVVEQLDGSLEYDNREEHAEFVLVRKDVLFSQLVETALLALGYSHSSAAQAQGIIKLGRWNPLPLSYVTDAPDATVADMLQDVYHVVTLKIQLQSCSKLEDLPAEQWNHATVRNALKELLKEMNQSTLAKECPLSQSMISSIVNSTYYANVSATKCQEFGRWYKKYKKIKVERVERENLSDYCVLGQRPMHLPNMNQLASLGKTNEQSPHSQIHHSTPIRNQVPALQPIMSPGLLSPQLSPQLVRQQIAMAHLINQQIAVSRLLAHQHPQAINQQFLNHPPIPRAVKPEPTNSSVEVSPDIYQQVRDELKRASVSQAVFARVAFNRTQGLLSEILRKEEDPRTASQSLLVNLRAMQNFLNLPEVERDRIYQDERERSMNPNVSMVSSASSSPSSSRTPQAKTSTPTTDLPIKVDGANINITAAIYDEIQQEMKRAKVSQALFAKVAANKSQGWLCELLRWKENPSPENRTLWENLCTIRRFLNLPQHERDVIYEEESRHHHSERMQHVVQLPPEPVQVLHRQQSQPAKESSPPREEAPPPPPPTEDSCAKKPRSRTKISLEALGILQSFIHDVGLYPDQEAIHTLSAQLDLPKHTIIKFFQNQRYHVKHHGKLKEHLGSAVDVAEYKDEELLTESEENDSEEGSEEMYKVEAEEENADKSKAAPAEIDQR
UniProt Q86XK3, 197-216: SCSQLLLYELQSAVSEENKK
UniProt Q7Z333: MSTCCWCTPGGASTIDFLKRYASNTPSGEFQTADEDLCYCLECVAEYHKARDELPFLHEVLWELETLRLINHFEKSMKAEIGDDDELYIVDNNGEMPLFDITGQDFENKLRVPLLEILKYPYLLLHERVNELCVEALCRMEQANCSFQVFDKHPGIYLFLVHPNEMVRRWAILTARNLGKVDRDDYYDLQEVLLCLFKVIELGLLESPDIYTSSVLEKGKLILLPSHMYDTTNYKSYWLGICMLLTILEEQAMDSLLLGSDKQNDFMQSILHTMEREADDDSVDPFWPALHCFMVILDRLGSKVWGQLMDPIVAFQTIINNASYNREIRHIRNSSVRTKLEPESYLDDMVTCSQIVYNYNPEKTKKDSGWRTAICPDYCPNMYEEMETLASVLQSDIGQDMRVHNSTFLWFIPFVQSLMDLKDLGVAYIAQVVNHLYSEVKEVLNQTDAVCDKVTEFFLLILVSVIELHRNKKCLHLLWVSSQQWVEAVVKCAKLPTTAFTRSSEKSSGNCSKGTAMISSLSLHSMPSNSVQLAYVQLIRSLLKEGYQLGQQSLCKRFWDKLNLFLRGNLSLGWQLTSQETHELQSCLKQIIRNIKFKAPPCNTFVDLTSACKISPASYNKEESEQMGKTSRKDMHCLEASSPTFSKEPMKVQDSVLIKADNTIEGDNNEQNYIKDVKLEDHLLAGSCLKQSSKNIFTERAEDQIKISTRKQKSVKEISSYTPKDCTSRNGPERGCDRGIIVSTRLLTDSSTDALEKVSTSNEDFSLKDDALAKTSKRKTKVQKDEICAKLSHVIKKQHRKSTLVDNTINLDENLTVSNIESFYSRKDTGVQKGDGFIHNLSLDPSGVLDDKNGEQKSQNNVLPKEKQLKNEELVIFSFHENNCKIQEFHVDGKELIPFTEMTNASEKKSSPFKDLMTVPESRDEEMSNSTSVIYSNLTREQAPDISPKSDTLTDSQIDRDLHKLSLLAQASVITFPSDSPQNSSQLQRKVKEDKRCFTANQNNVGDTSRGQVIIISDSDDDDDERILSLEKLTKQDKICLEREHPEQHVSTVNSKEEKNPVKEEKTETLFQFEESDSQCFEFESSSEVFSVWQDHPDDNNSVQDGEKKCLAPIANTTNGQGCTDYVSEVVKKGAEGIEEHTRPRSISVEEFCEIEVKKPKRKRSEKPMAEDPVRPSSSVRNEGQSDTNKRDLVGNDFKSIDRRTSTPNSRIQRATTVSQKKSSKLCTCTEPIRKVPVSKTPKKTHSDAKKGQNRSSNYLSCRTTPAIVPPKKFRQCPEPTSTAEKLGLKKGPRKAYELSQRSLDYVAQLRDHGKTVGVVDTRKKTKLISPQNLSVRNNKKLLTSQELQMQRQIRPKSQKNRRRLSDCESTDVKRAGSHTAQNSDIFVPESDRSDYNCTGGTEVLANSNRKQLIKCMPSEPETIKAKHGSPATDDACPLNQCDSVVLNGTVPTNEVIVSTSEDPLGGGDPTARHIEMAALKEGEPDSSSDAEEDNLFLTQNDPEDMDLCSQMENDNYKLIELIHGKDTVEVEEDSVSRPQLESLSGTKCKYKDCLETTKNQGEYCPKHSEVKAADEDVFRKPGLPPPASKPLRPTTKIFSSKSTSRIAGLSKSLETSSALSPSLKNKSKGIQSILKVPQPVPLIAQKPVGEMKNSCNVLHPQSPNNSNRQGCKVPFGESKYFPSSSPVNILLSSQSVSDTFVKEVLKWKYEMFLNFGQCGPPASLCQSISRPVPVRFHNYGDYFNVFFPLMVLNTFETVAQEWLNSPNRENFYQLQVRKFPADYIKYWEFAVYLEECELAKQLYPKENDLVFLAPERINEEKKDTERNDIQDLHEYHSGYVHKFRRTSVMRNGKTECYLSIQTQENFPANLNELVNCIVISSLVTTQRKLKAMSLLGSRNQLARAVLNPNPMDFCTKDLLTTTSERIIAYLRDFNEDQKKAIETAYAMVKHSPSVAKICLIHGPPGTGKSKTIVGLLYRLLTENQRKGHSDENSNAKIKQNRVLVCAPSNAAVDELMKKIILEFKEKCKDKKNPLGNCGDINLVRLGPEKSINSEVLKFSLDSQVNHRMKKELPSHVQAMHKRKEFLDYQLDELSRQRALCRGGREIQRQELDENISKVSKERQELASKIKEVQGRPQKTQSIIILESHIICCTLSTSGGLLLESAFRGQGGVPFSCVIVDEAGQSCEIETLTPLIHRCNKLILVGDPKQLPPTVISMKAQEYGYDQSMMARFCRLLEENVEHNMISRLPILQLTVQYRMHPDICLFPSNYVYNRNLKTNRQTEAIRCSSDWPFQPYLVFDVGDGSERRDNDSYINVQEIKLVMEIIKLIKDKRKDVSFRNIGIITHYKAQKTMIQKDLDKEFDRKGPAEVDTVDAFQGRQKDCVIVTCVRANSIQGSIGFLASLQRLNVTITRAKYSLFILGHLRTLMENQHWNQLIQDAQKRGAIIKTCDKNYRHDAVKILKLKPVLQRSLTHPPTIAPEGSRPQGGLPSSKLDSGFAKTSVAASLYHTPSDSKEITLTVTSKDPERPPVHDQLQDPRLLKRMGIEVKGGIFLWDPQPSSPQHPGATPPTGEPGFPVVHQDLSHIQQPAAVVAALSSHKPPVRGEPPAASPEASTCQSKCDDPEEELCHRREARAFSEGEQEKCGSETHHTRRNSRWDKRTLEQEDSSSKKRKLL
UniProt Q9BY12, 294-313: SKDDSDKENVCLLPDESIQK
UniProt O95470, 279-303: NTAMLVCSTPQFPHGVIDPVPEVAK
UniProt Q9UHD8, 238-257: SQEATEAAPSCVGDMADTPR

[2] = compound: ClCC(=O)N[C@H]1CCCc2ccccc12; assay: as above; settings: treatment time: 4 h, cell line lysate: HEK293T
Procedure: as §1

Row | Target | log2 mean competition ratio ([1]; 50 µM) | log2 mean competition ratio ([1]; 200 µM) | log2 mean competition ratio ([2]; 50 µM) | log2 mean competition ratio ([2]; 200 µM)
1 | SERPINB9 C259 (UniProt P50453) | -0.0617 | 0.096 | -0.331 | -0.0225
2 | SCAI C63 (UniProt Q8N9R8) | 0.314 | -0.0784 | 0.00123 | 0.178
3 | SHROOM3 C1403 | -0.244 | -0.465 | 0.0484 | -0.356
4 | SEC24A C381 (UniProt O95486) | 0.228 | 0.0122 | -0.139 | -0.027
5 | SEC23B C434 (UniProt Q15437) | -0.406 | -0.119 | -0.635 | -0.133
6 | SENP6 C360 (UniProt Q9GZR1) | 0.00913 | 0.0862 | 0.00881 | -0.124
7 | SECISBP2 C644 (UniProt Q96T21) | -0.221 | -0.0174 | -0.349 | 0.103
8 | SCYL2 C511 (UniProt Q6P3W7) | 0.0525 | -0.0288 | 0.195 | -0.0333
9 | SCYL3 C280 (UniProt Q8IZE3) | 0.0304 | -0.207 | -0.459 | -0.246
10 | SEC31A C458 | -0.0554 | -0.205 | 0.136 | 0.0384
11 | SIPA1L1 C105 (UniProt O43166) | -0.4 | -0.00992 | 0.192 | -0.0594
12 | SH3D19 C455 (UniProt Q5HYK7) | -0.238 | 0.0197 | 0.393 | 0.386
13 | SGO2 C798 (UniProt Q562F6) | -0.193 | 0.241 | 0.133 | 0.0268
14 | SATB2 C159 (UniProt Q9UPW6) | -0.0371 | -0.277 | 0.388 | -0.146
15 | SFR1 C198 (UniProt Q86XK3) | -0.0817 | -0.276 | -0.0657 | -0.0434
16 | SALL3 C603 | 0.0133 | -0.278 | 0.331 | -0.182
17 | SASS6 C156 (UniProt Q6UVJ0) | -0.0935 | 0.385 | 0.187 | 0.0986
18 | SDCCAG8 C34 | 0.758 | 0.17 | 0.591 | -0.0164
19 | SIPA1L1 C1037 (UniProt O43166) | 0.0622 | 0.0795 | -0.101 | 0.0376
20 | SETX C2618 (UniProt Q7Z333) | 0.0212 | 0.184 | -0.452 | -0.242
21 | SH3BP5L C348 (UniProt Q7L8J4) | 0.118 | -0.0739 | -0.134 | 0.134
22 | SH3PXD2B C664 (UniProt A1X283) | -0.143 | 0.0227 | 0.0804 | 0.218

Twelve successive entries out of the list so far, quoted:
Row | Target | log2 mean competition ratio ([1]; 50 µM) | log2 mean competition ratio ([1]; 200 µM) | log2 mean competition ratio ([2]; 50 µM) | log2 mean competition ratio ([2]; 200 µM)
2 | SCAI C63 (UniProt Q8N9R8) | 0.314 | -0.0784 | 0.00123 | 0.178
3 | SHROOM3 C1403 | -0.244 | -0.465 | 0.0484 | -0.356
4 | SEC24A C381 (UniProt O95486) | 0.228 | 0.0122 | -0.139 | -0.027
5 | SEC23B C434 (UniProt Q15437) | -0.406 | -0.119 | -0.635 | -0.133
6 | SENP6 C360 (UniProt Q9GZR1) | 0.00913 | 0.0862 | 0.00881 | -0.124
7 | SECISBP2 C644 (UniProt Q96T21) | -0.221 | -0.0174 | -0.349 | 0.103
8 | SCYL2 C511 (UniProt Q6P3W7) | 0.0525 | -0.0288 | 0.195 | -0.0333
9 | SCYL3 C280 (UniProt Q8IZE3) | 0.0304 | -0.207 | -0.459 | -0.246
10 | SEC31A C458 | -0.0554 | -0.205 | 0.136 | 0.0384
11 | SIPA1L1 C105 (UniProt O43166) | -0.4 | -0.00992 | 0.192 | -0.0594
12 | SH3D19 C455 (UniProt Q5HYK7) | -0.238 | 0.0197 | 0.393 | 0.386
13 | SGO2 C798 (UniProt Q562F6) | -0.193 | 0.241 | 0.133 | 0.0268

Carrying on.

Row | Target | log2 mean competition ratio ([1]; 50 µM) | log2 mean competition ratio ([1]; 200 µM) | log2 mean competition ratio ([2]; 50 µM) | log2 mean competition ratio ([2]; 200 µM)
23 | SEC23IP C814 (UniProt Q9Y6Y8) | -0.147 | -0.347 | -0.122 | -0.384
24 | SDAD1 C87 (UniProt Q9NVU7) | -0.0562 | 0.0688 | -0.615 | -0.0785
25 | SART3 C670 | 0.0493 | -0.0159 | -0.0453 | -0.0319
26 | SEC23A C423 (UniProt Q15436) | 0.198 | -0.128 | 0.146 | -0.117
27 | SDCCAG8 C649 | -0.221 | 0.0332 | -0.189 | -0.0898
28 | SH3TC1 C453 | -0.0334 | -0.18 | 0.318 | -0.1
29 | SENP2 C202 (UniProt Q9HC62) | 0.197 | -0.0367 | 0.36 | 0.0192
30 | SGO2 C681 (UniProt Q562F6) | -0.295 | 0.272 | -0.207 | 0.506
31 | SAMD11 C161 | -0.07 | 0.259 | -0.254 | 0.146
32 | SHC1 C196 (UniProt P29353) | -0.427 | -0.237 | -0.16 | -0.00881
33 | SCAPER C304 (UniProt Q9BY12) | -0.568 | 0.0596 | -0.277 | 0.0999
34 | SDHA C536 (UniProt P31040) | -0.251 | -0.0396 | -0.00731 | -0.0317
35 | SF3A3 C145 (UniProt Q12874) | -0.0423 | -0.0423 | 0.154 | -0.0694
36 | SBDS C31 (UniProt Q9Y3A5) | -0.0136 | -0.188 | 0.0912 | -0.149
37 | SEPTIN5 C300 | -0.0303 | -0.317 | -0.601 | -0.415
38 | SH3PXD2A C995 (UniProt Q5TCZ1) | 0.0951 | -0.0591 | 0.0966 | 0.0451
39 | SGPL1 C285 (UniProt O95470) | -0.288 | -0.48 | 0.195 | -0.244
40 | SEMA4B C753 (UniProt Q9NPR2) | 0.026 | 0.00485 | 0.0362 | 0.122
41 | SCRN1 C324 (UniProt Q12765) | -0.0725 | 0.0186 | -0.236 | -0.0417
42 | SETD2 C736 (UniProt Q9BYW2) | -0.41 | 0.711 | -0.0671 | 0.419
43 | SEPTIN9 C248 (UniProt Q9UHD8) | -0.186 | -0.226 | 0.137 | -0.121

Reference: the supplement of paper PMC11732987, “Enantioselective OTUD7B fragment discovery through chemoproteomics screening and high-throughput optimisation” (Communications Chemistry, 2025)
